Results from the supplement of paper PMC10849652.
The list shows a part of the results. Residues, ends and D or L forms follow the SMILES beside them. *: point of attachment. Cbz = O=C(OCc1ccccc1)*

Chains of the proteins cited; added tags and fusions are not shown. Lines headed by an entry give the natural chain unless they say otherwise; changes in a name come on top.
UniProt A6NHQ2: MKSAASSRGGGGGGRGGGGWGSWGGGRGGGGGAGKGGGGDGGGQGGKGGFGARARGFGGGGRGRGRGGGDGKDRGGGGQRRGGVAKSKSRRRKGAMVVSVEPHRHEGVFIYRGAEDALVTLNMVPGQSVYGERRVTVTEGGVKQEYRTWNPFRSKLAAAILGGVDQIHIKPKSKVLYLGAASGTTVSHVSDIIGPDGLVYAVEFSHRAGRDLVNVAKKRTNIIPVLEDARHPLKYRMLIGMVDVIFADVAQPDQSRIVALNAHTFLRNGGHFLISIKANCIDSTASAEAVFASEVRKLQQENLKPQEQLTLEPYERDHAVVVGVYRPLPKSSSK
UniProt Q5HYJ3: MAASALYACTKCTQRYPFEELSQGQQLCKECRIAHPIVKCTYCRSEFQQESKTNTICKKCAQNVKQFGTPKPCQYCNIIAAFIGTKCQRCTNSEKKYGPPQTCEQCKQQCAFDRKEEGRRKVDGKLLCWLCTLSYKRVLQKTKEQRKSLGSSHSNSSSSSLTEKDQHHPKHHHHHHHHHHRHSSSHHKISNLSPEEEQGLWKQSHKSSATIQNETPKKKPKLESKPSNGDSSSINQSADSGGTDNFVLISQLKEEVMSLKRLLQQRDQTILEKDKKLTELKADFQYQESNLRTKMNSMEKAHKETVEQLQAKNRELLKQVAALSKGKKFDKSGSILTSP
UniProt Q9HA64: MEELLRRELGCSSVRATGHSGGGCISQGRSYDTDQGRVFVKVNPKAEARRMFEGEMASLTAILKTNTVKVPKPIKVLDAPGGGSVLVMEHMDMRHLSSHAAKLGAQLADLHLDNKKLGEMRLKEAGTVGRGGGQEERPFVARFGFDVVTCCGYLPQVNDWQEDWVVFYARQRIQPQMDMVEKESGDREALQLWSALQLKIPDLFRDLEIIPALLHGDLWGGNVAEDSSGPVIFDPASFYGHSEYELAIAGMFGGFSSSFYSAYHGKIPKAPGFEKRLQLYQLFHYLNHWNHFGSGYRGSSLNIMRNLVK
UniProt O95302: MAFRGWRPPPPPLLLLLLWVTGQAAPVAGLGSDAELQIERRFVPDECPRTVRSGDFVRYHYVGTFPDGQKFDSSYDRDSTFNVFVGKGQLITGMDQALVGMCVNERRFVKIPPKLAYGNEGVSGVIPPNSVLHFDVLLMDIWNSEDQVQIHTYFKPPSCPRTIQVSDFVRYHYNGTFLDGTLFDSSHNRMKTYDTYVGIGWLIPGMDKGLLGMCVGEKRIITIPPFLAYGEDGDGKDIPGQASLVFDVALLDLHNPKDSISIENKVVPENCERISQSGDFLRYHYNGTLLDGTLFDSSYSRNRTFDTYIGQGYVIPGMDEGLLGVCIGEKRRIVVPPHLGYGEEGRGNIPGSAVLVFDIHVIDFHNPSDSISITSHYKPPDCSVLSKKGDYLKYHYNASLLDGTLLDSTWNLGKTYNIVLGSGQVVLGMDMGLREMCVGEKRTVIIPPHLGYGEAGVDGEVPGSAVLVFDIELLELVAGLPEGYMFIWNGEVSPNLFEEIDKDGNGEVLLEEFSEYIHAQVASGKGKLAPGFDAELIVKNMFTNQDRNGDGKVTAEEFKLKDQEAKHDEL
UniProt Q52LJ0: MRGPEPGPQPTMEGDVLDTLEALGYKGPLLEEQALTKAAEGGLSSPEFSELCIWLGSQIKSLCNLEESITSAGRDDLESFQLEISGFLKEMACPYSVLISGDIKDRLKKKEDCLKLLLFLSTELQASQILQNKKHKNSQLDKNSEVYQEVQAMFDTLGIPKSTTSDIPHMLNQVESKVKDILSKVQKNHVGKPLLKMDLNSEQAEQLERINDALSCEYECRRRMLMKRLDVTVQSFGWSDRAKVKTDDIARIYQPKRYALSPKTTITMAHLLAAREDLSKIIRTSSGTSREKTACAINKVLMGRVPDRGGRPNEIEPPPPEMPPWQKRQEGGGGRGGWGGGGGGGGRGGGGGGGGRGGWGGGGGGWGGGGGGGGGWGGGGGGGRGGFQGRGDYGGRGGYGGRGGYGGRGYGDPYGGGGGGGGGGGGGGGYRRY
UniProt P35916, whole entry, looked up: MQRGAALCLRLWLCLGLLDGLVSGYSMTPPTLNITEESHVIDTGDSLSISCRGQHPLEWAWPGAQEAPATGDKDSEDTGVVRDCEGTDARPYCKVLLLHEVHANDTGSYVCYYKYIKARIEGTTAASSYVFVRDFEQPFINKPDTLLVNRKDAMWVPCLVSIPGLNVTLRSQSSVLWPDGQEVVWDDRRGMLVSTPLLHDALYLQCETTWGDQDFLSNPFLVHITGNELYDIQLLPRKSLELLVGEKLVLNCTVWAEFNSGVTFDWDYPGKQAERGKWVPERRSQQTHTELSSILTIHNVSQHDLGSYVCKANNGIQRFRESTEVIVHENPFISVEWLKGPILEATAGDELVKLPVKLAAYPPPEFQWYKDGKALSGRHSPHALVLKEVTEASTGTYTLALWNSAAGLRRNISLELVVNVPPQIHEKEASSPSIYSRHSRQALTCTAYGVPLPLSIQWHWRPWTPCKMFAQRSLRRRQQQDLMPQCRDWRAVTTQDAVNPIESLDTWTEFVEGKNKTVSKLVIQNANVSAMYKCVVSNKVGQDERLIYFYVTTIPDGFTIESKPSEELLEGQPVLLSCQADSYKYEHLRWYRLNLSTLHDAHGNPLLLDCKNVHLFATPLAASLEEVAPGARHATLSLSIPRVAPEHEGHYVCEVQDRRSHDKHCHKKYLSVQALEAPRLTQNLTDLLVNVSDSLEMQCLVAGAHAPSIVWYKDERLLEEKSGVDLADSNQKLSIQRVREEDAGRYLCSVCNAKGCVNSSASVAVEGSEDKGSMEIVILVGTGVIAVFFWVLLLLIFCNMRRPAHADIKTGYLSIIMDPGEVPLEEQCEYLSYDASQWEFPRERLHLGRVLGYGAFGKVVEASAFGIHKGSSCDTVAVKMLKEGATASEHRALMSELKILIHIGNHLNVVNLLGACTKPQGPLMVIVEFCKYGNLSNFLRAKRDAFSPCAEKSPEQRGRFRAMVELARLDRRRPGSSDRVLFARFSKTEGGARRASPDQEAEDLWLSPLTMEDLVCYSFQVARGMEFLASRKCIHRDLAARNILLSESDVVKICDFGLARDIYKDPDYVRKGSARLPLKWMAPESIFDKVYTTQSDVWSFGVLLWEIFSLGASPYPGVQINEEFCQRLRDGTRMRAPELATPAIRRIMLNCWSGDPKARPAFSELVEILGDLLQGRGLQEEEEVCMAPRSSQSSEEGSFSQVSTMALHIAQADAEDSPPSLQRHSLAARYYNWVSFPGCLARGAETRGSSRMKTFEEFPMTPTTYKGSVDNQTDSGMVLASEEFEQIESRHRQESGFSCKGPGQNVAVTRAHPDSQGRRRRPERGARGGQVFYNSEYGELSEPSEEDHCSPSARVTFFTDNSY
UniProt Q14192: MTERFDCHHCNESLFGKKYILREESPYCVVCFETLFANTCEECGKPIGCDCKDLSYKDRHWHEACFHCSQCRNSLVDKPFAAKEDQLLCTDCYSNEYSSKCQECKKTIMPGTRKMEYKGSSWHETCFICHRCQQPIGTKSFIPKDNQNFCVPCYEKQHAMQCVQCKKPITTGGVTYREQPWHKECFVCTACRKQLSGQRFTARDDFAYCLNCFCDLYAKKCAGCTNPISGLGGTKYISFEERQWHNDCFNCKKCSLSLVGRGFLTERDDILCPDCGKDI
UniProt P22087: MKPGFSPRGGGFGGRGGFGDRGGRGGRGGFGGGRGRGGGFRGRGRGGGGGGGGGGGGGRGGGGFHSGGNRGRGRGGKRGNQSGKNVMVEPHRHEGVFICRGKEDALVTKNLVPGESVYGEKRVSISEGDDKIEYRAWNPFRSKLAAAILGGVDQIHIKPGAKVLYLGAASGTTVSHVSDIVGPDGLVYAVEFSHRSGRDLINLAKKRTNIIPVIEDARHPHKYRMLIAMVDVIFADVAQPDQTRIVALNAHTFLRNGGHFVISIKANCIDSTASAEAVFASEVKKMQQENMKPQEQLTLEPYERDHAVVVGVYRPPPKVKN
UniProt P21333, whole entry, looked up: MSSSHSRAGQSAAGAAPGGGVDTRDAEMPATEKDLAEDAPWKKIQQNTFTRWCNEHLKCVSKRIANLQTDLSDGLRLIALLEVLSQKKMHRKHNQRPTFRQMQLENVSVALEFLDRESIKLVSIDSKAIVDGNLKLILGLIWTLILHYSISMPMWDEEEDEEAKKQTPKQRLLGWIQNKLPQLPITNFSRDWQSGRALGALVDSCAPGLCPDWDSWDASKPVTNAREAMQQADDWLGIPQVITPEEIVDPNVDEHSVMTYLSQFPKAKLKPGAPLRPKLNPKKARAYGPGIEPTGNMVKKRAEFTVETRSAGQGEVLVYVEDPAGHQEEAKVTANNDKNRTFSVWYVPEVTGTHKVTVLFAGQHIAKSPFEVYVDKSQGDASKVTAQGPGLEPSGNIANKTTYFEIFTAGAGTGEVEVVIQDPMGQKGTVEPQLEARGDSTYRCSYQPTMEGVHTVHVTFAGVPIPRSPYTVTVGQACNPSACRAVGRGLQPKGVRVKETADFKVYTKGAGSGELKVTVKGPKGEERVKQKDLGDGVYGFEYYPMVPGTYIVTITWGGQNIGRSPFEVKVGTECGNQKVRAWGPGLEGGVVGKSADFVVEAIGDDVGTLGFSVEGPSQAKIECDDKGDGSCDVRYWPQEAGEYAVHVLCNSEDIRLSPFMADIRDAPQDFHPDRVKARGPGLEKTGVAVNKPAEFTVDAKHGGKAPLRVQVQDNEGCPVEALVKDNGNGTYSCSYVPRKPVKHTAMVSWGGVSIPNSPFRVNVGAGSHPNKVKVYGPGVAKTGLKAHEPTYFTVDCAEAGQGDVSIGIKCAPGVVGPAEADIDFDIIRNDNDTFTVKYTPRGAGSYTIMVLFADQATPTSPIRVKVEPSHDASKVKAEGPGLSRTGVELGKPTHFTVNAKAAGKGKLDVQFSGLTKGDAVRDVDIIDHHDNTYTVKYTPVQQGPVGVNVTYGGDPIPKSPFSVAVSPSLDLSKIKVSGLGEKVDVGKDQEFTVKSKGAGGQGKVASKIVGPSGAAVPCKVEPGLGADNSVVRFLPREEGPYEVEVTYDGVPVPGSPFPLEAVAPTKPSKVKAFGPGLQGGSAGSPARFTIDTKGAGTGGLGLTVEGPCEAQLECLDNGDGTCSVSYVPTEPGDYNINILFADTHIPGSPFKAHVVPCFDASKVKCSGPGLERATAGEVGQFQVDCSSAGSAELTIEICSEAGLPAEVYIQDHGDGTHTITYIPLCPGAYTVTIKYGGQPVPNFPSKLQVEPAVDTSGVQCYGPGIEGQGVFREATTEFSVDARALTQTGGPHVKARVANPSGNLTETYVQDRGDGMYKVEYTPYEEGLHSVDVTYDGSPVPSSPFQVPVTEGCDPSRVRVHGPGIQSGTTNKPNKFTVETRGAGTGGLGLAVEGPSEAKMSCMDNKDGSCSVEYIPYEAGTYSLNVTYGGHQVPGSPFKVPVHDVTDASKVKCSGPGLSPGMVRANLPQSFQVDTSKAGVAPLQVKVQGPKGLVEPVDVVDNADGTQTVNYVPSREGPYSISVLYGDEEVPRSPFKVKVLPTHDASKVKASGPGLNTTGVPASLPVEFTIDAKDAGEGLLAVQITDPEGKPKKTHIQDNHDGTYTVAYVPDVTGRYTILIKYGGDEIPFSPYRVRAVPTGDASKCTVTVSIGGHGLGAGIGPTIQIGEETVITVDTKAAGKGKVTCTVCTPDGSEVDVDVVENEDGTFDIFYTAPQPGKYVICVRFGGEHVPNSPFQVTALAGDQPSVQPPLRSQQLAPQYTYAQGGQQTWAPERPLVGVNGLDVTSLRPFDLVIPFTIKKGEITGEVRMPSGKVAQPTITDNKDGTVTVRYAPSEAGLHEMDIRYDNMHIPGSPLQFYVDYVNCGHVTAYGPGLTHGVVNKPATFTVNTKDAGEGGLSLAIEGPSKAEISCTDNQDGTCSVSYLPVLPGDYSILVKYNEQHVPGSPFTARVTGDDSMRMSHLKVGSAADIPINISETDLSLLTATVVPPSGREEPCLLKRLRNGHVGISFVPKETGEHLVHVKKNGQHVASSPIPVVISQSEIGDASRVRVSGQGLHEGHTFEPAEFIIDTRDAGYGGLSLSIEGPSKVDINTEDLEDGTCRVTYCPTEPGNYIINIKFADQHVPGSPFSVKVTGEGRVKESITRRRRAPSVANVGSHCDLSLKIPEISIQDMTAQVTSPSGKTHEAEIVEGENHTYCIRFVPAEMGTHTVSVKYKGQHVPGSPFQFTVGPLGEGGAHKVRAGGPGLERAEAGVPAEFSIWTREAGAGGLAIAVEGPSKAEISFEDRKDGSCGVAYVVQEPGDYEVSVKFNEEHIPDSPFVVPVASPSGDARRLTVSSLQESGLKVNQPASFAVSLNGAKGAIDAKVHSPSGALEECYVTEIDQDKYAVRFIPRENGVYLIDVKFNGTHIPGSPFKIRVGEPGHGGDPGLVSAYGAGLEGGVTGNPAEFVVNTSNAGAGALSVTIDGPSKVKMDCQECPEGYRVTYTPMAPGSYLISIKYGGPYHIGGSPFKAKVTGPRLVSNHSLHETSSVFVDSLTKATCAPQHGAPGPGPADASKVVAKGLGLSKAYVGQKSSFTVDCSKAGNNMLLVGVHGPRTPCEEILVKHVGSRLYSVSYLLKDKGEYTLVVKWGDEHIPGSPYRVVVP

Experiments:
Test in all cases: log2 fold change, soluble protein after heating vs DMSO (PISA); higher = thermal stabilisation; K562 cells, 10 uM, 30 min; active = over 0.2 and 3.5 SD of the protein, either way, in both replicates (recomputed)
erlotinib = compound: C#Cc1cccc(Nc2ncnc3cc(OCCOC)c(OCCOC)cc23)c1 [erlotinib]
Procedure, shortened: (§1)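 Values are thermal stability changes relative to control samples and are taken from duplicates. They are stated as log2 fold changes. Before quantification by TMTpro 16plex LC-MS/MS with equalised channel sums, K562 cells at 2×10^6 cells/mL were treated with 10 μM compound for 30 min, heated in aliquots for 3 min across 48°C-58°C, pooled, extracted in PBS with 0.5% NP-40 at 4°C, and centrifuged at 21,000xg for 90 min to give the soluble supernatant.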

[1] = compound: C/C(=N\NC(=O)C1=CC(=CC=C1)S(=O)(=O)N2CCOCC2)/C3=C(C=CC(=C3)Cl)O
Procedure, shortened: as §1

[2] = compound: C1=CC(=C(C=C1Cl)C2=NC3=NC=CN=C3C(=N2)NC4=CC=NC=C4)F
Procedure, shortened: as §1

[3] = compound: C1=CC(=CC=C1C2=NC3=C(N2)C=C(C=C3)C(=O)N)OC4=CC=C(C=C4)Cl
Procedure, shortened: as §1

[4] = compound: C1=CC2=C(C=CC(=C2)/C=C\3/C(=O)NC(=NCC4=CC=CS4)S3)N=C1
Procedure, shortened: as §1

[5] = compound: C1=CC2=NC=CN=C2C=C1/C=C/3\C(=O)NC(=O)S3
Procedure, shortened: as §1

[6] = compound: C1=CC=C(C=C1)C2=NC(=C(N2)C3=CC=NC=C3)C4=CC(=C(C=C4)Cl)O
Procedure, shortened: as §1

[7] = compound: C1=CC=C2C(=C1)C3=NNC4=CC=CC(=C43)C2=O
Procedure, shortened: as §1

[8] = compound: C1CCN(C1)C(=O)NC2=CC=CC(=C2)NC3=NC=C(C(=N3)NCCC4=CN=CN4)Br
Procedure, shortened: as §1

[9] = compound: C1CN(CCC1(CC2=CC=C(C=C2)Cl)N)C3=NC=NC4=C3C=CN4
Procedure, shortened: as §1

IRAK-1-4 Inhibitor I = compound: C1COCCN1CCN2C3=CC=CC=C3N=C2NC(=O)C4=CC(=CC=C4)[N+](=O)[O-] [IRAK-1-4 Inhibitor I]
Procedure, shortened: as §1

ibrutinib = compound: C=CC(=O)N1CCC[C@@H](n2nc(-c3ccc(Oc4ccccc4)cc3)c3c(N)ncnc32)C1 [ibrutinib]
Procedure, shortened: as §1

[10] = compound: CC(=O)c1cnc2ccc(-c3cc(Cl)c(O)c(Cl)c3)nc2c1N[C@H]1CC[C@H](CN(C)C)CC1
Procedure, shortened: as §1

ralimetinib = compound: CC(C)(C)Cn1c(N)nc2ccc(-c3[nH]c(C(C)(C)C)nc3-c3ccc(F)cc3)nc21 [ralimetinib]
Procedure, shortened: as §1

[11] = compound: CC(C)(O)CC(=O)NCCn1ccc2ncnc(Nc3ccc(Oc4cccc(C(F)(F)F)c4)c(Cl)c3)c21
Procedure, shortened: as §1

[12] = compound: CC(C)C1=C2N=C(C=C(N2N=C1)NCC3=CC=CC=C3)NCCCCCCN
Procedure, shortened: as §1

[13] = compound: CC(C)C[C@@H](C=O)NC(=O)[C@H](CC(C)C)NC(=O)[C@H](CC(C)C)NC(=O)OCc1ccccc1
Procedure, shortened: as §1

pinometostat = compound: CC(C)N(C[C@H]1O[C@@H](n2cnc3c(N)ncnc32)[C@H](O)[C@@H]1O)[C@H]1C[C@@H](CCc2nc3cc(C(C)(C)C)ccc3[nH]2)C1 [pinometostat]
Procedure, shortened: as §1

[14] = compound: CC1=C(C(CC(=O)N1)C2=CC=C(C=C2)C(F)(F)F)C(=O)NC3=C(C=C4C(=C3)C=NN4)F
Procedure, shortened: as §1

[15] = compound: CC1=C(C2=C(C=C1)C(=O)C3=CC=CC=C3N2CCCN)C
Procedure, shortened: as §1

Measured: log2 fold change

FIP1L1 (UniProt Q6UN15)
inactive: erlotinib -0.039 | [1] -0.027 | [2] -0.067 | [3] 0.05 | [4] -0.055 | [5] 0.076 | [6] -0.078 | [7] -0.057 | [8] 0.008 | [9] 0.028 | IRAK-1-4 Inhibitor I 0.006 | ibrutinib 0.048 | [10] -0.043 | ralimetinib -0.007 | [11] 0.136 | [12] 0.02 | [13] 0.11 | pinometostat 0.01 | [14] 0.089 | [15] -0.014

FBLL1 (UniProt A6NHQ2)
inactive: erlotinib -0.083 | [1] -0.051 | [2] -0.132 | [3] -0.069 | [4] -0.207 | [5] 0.056 | [6] -0.139 | [7] -0.047 | [8] -0.116 | [9] -0.058 | IRAK-1-4 Inhibitor I -0.048 | ibrutinib 0.119 | [10] -0.025 | ralimetinib 0.127 | [11] 0.08 | [12] 0.28 | [13] 0.116 | pinometostat 0.261 | [14] -0.018 | [15] 0.16

FAM76B (UniProt Q5HYJ3)
inactive: erlotinib -0.042 | [1] 0.094 | [2] 0.049 | [3] -0.016 | [4] 0.009 | [5] -0.051 | [6] -0.322 | [7] 0.147 | [8] -0.131 | [9] -0.08 | IRAK-1-4 Inhibitor I -0.175 | ibrutinib -0.032 | [10] -0.008 | ralimetinib 0.075 | [11] -0.065 | [12] 0.176 | [13] 0.133 | pinometostat 0.098 | [14] -0.098 | [15] 0.089

FAM98A (UniProt Q8NCA5)
inactive: erlotinib -0.018 | [1] -0.102 | [2] -0.144 | [3] 0.037 | [4] -0.035 | [5] -0.022 | [6] 0.083 | [7] 0.067 | [8] 0.085 | [9] -0.057 | IRAK-1-4 Inhibitor I -0.017 | ibrutinib -0.006 | [10] -0.005 | ralimetinib 0.06 | [11] -0.001 | [12] -0.08 | [13] 0.102 | pinometostat 0.247 | [14] -0.022 | [15] -0.057

FGF2 (UniProt P09038)
inactive: erlotinib 0.003 | [1] -0.011 | [2] -0.015 | [3] 0.027 | [4] 0.024 | [5] 0.05 | [6] -0.001 | [7] -0.042 | [8] -0.059 | [9] 0.085 | IRAK-1-4 Inhibitor I -0.005 | ibrutinib 0.122 | [10] -0.081 | ralimetinib 0.017 | [11] 0.049 | [12] -0.093 | [13] 0.054 | pinometostat 0.041 | [14] -0.057 | [15] -0.031

FN3KRP (UniProt Q9HA64)
inactive: erlotinib -0.019 | [1] 0.014 | [2] 0.004 | [3] 0.007 | [4] 0.033 | [5] -0.01 | [6] -0.027 | [7] -0.036 | [8] -0.039 | [9] 0.05 | IRAK-1-4 Inhibitor I 0.053 | ibrutinib 0.015 | [10] 0.032 | ralimetinib -0.039 | [11] -0.008 | [12] 0.077 | [13] -0.01 | pinometostat -0.083 | [14] 0.03 | [15] -0.019

FAM3A (UniProt P98173)
inactive: erlotinib -0.064 | [1] 0.118 | [2] -0.067 | [3] 0.029 | [4] 0.059 | [5] 0.082 | [6] 0.083 | [7] -0.05 | [8] -0.044 | [9] 0.059 | IRAK-1-4 Inhibitor I -0.028 | ibrutinib -0.011 | [10] 0.028 | ralimetinib 0.023 | [11] -0.028 | [12] -0.07 | [13] 0.047 | pinometostat 0.007 | [15] 0.088

3 successive records from above, quoted:
FBLL1 (UniProt A6NHQ2)
inactive: erlotinib -0.083 | [1] -0.051 | [2] -0.132 | [3] -0.069 | [4] -0.207 | [5] 0.056 | [6] -0.139 | [7] -0.047 | [8] -0.116 | [9] -0.058 | IRAK-1-4 Inhibitor I -0.048 | ibrutinib 0.119 | [10] -0.025 | ralimetinib 0.127 | [11] 0.08 | [12] 0.28 | [13] 0.116 | pinometostat 0.261 | [14] -0.018 | [15] 0.16

FAM76B (UniProt Q5HYJ3)
inactive: erlotinib -0.042 | [1] 0.094 | [2] 0.049 | [3] -0.016 | [4] 0.009 | [5] -0.051 | [6] -0.322 | [7] 0.147 | [8] -0.131 | [9] -0.08 | IRAK-1-4 Inhibitor I -0.175 | ibrutinib -0.032 | [10] -0.008 | ralimetinib 0.075 | [11] -0.065 | [12] 0.176 | [13] 0.133 | pinometostat 0.098 | [14] -0.098 | [15] 0.089

FAM98A (UniProt Q8NCA5)
inactive: erlotinib -0.018 | [1] -0.102 | [2] -0.144 | [3] 0.037 | [4] -0.035 | [5] -0.022 | [6] 0.083 | [7] 0.067 | [8] 0.085 | [9] -0.057 | IRAK-1-4 Inhibitor I -0.017 | ibrutinib -0.006 | [10] -0.005 | ralimetinib 0.06 | [11] -0.001 | [12] -0.08 | [13] 0.102 | pinometostat 0.247 | [14] -0.022 | [15] -0.057

(continued)

FKBP9 (UniProt O95302)
inactive: erlotinib -0.033 | [1] 0.077 | [2] -0.026 | [3] 0.032 | [4] 0.019 | [5] -0.002 | [6] -0.034 | [7] -0.005 | [8] 0.045 | [9] 0.005 | IRAK-1-4 Inhibitor I -0.01 | ibrutinib 0.005 | [10] -0.013 | ralimetinib 0.001 | [11] 0.029 | [12] -0.013 | [13] 0.03 | pinometostat 0.033 | [14] 0.012 | [15] 0.033

FAM98B (UniProt Q52LJ0)
inactive: erlotinib 0.037 | [1] 0.011 | [2] -0.009 | [3] 0.019 | [4] -0.042 | [5] 0.038 | [6] 0.021 | [7] -0.067 | [8] 0.018 | [9] -0.136 | IRAK-1-4 Inhibitor I 0.013 | ibrutinib -0.033 | [10] 0.012 | ralimetinib 0.043 | [11] 0.018 | [12] -0.102 | [13] 0.049 | pinometostat 0.156 | [14] -0.064 | [15] 0.088

FLT4 (UniProt P35916)
inactive: erlotinib 0.596 | [1] 0.018 | [2] -0.014 | [3] -0.004 | [4] 0.035 | [5] 0.038 | [6] -0.039 | [7] -0.018 | [8] -0.021 | [9] -0.051 | IRAK-1-4 Inhibitor I -0.001 | ibrutinib 0.012 | [10] 0.007 | ralimetinib -0.083 | [11] -0.055 | [12] 0.032 | [13] -0.004 | pinometostat -0.094 | [14] -0.009 | [15] 0.086

FMC1 (UniProt Q96HJ9)
active: [6] 0.319
inactive: erlotinib 0 | [1] 0.072 | [2] 0.083 | [3] 0.004 | [4] 0.108 | [5] -0.063 | [7] 0.001 | [8] -0.026 | [9] -0.042 | IRAK-1-4 Inhibitor I -0.06 | ibrutinib 0.008 | [10] 0.066 | ralimetinib -0.098 | [11] -0.006 | [12] 0.01 | [13] 0.125 | pinometostat 0.047 | [15] 0.02

FANCD2 isoform 1 (UniProt Q9BXW9)
active: [12] -0.354 | [15] -0.369
inactive: erlotinib 0.077 | [1] 0.075 | [2] -0.003 | [3] 0.012 | [4] 0.145 | [5] 0.02 | [6] 0 | [7] -0.012 | [8] -0.008 | [9] 0.02 | IRAK-1-4 Inhibitor I -0.002 | ibrutinib 0.025 | [10] -0.155 | ralimetinib -0.082 | [11] -0.029 | [13] -0.266 | pinometostat 0.062

FLNC (UniProt Q14315)
inactive: erlotinib -0.015 | [1] 0.028 | [2] 0.005 | [3] -0.016 | [4] 0.012 | [5] 0.036 | [6] 0.014 | [7] -0.01 | [8] 0.012 | [9] -0.034 | IRAK-1-4 Inhibitor I 0.005 | ibrutinib -0.01 | [10] 0.036 | ralimetinib 0.006 | [11] 0.001 | [12] -0.003 | [13] -0.004 | pinometostat -0.003 | [14] -0.008 | [15] 0.009

FHL2 (UniProt Q14192)
inactive: erlotinib -0.002 | [1] -0.017 | [2] 0.003 | [3] 0.005 | [4] -0.078 | [5] 0.07 | [6] -0.05 | [7] -0.086 | [8] 0.002 | [9] 0.108 | IRAK-1-4 Inhibitor I 0.007 | ibrutinib 0.024 | [10] 0.016 | ralimetinib -0.079 | [11] 0.02 | [12] 0.116 | [13] 0.021 | pinometostat -0.044 | [14] 0.02 | [15] -0.027

FBL (UniProt P22087)
active: [2] -0.566
inactive: erlotinib 0.06 | [1] -0.153 | [3] 0.013 | [4] -0.102 | [5] 0.13 | [6] -0.099 | [7] -0.091 | [8] 0.054 | [9] -0.117 | IRAK-1-4 Inhibitor I -0.094 | ibrutinib 0.048 | [10] -0.03 | ralimetinib 0.17 | [11] 0.146 | [12] 0.199 | [13] 0.184 | pinometostat 0.319 | [15] 0.206

FLNA (UniProt P21333)
inactive: erlotinib 0.022 | [1] 0.072 | [2] -0.002 | [3] -0.032 | [4] -0.022 | [5] 0.005 | [6] 0.013 | [7] -0.017 | [8] -0.018 | [9] -0.133 | IRAK-1-4 Inhibitor I -0.046 | ibrutinib -0.111 | [10] 0.031 | ralimetinib 0.035 | [11] -0.086 | [12] -0.112 | [13] 0.049 | pinometostat 0.081 | [15] -0.027
